These are yes or no findings as the source states them, for the method shown. For some of these results: In cells and extracts the contact can be indirect. Some binding calls cover weakened binding; strength is not graded here.
Assays:
[1] = target: Hydroxyacyl-CoA Dehydrogenase Trifunctional Multienzyme Complex Subunit Alpha (HADHA) (mouse) (UniProt Q8BMS1); assay: IP of Sirt2, LC-MS/MS, activated WT mouse CD3+ T cell extracts
[2] = target: T1, Hydroxyacyl-CoA Dehydrogenase Trifunctional Multienzyme Complex Subunit Beta (HADHB) (mouse) (UniProt Q99JY0); assay: as above
T1 sequence (looked up): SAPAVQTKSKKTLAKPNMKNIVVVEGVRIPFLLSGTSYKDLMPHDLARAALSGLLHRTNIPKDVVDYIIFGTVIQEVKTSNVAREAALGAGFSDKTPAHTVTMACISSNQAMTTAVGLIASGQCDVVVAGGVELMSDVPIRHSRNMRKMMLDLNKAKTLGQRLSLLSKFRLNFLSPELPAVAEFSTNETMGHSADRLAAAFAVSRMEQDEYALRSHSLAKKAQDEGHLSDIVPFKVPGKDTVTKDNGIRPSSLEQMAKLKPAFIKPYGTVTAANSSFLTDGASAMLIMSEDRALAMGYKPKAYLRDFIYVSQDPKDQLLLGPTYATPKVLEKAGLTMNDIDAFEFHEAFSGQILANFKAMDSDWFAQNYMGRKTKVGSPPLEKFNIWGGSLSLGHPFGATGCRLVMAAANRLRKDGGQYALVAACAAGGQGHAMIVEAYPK

Chains of the proteins cited; added tags and fusions are not shown. Residues count along the entry.
UniProt Q8BMS1, residues 37-763: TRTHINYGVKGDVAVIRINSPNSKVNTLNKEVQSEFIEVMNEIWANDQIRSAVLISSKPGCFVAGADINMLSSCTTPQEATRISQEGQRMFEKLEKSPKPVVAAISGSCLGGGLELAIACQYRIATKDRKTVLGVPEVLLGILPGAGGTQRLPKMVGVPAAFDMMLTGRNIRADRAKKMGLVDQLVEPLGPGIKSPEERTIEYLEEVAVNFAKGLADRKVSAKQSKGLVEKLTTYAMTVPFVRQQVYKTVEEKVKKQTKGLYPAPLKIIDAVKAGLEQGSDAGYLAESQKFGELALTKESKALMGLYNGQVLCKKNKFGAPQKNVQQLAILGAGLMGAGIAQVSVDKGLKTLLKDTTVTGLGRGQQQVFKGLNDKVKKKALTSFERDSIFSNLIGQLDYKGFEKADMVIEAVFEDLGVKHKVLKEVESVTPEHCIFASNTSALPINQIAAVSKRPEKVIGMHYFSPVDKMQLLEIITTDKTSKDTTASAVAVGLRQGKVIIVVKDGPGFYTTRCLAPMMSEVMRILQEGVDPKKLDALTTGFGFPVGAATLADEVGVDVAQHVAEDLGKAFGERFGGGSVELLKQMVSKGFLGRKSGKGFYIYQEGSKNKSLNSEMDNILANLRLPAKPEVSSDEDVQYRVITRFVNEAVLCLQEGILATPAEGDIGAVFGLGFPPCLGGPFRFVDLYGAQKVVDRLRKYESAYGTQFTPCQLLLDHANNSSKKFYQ
UniProt P17182, residues 2-434: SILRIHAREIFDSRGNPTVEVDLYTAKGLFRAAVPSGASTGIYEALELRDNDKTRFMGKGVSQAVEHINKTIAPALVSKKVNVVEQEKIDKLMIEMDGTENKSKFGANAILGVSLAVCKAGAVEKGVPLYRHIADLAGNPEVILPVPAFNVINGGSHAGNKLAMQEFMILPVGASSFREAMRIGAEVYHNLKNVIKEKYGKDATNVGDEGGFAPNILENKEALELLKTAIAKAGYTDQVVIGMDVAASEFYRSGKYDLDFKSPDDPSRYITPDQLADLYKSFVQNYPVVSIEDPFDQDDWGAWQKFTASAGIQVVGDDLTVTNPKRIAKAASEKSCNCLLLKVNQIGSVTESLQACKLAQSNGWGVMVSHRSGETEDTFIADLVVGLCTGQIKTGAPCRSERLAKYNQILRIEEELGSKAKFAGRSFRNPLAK
UniProt P16858: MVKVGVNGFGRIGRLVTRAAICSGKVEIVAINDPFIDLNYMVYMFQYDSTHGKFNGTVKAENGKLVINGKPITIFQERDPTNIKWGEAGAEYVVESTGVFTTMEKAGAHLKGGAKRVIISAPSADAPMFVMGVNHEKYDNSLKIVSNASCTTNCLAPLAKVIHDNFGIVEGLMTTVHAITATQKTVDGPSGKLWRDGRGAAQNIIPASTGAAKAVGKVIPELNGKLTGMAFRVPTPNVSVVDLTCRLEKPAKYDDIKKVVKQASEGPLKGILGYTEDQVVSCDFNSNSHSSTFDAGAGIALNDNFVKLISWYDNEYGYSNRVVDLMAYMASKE
UniProt D3Z7P3, residues 55-674: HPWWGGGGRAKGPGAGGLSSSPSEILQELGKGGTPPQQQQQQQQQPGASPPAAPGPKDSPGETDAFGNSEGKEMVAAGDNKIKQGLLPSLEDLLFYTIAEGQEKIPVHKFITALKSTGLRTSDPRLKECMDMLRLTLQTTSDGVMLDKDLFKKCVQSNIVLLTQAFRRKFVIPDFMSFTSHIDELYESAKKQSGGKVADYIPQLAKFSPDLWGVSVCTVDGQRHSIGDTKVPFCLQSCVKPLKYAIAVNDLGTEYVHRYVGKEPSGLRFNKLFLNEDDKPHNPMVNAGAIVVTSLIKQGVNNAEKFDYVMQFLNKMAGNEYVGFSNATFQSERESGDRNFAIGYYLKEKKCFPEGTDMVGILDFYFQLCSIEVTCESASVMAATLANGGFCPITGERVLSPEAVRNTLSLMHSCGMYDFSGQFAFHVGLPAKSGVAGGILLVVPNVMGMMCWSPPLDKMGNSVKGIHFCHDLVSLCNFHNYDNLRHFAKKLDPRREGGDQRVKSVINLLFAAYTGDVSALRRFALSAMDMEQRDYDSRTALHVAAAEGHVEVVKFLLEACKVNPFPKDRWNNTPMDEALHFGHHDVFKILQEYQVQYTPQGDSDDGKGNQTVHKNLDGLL

enolase 1 (ENO1) (mouse) [3] = target: enolase 1 (ENO1) (mouse) (UniProt P17182); assay: as above
[4] = target: glyceraldehyde-3-phosphate dehydrogenase (GAPDH) (mouse) (UniProt P16858); assay: as above
enolase 1 (ENO1) (mouse) [5] = target: enolase 1 (ENO1) (mouse) (UniProt P17182); assay: IP of Sirt2, LC-MS/MS, activated WT mouse CD3+ T cell extracts (FIG. 24A)
[6] = target: glyceraldehyde-3-phosphate dehydrogenase (GAPDH) (mouse) (UniProt P16858); assay: as above
[7] = target: Hydroxyacyl-CoA Dehydrogenase Trifunctional Multienzyme Complex Subunit Alpha (HADHA) (mouse) (UniProt Q8BMS1); assay: co-IP with anti-Sirt2, immunoblot, activated WT mouse CD3+ T cell extracts
[8] = target: T1, Hydroxyacyl-CoA Dehydrogenase Trifunctional Multienzyme Complex Subunit Beta (HADHB) (mouse); assay: as above
enolase 1 (ENO1) (mouse) [9] = target: enolase 1 (ENO1) (mouse) (UniProt P17182); assay: as above
[10] = target: glutaminase (GLS) (mouse) (UniProt D3Z7P3); assay: as above
[11] = target: glyceraldehyde-3-phosphate dehydrogenase (GAPDH) (mouse) (UniProt P16858); assay: as above
enolase 1 (ENO1) (mouse) [12] = target: enolase 1 (ENO1) (mouse) (UniProt P17182); assay: co-IP with anti-Sirt2, immunoblot, activated WT mouse CD3+ T cell extracts (FIG. 3B)
[13] = target: glyceraldehyde-3-phosphate dehydrogenase (GAPDH) (mouse) (UniProt P16858); assay: as above
enolase 1 (ENO1) (mouse) [14] = target: enolase 1 (ENO1) (mouse) (UniProt P17182); assay: anti-Sirt2 co-IP vs isotype control, LC-MS/MS, activated WT mouse CD3+ T cell extracts
[15] = target: glyceraldehyde-3-phosphate dehydrogenase (GAPDH) (mouse) (UniProt P16858); assay: as above
enolase 1 (ENO1) (mouse) [16] = target: enolase 1 (ENO1) (mouse) (UniProt P17182); assay: co-IP/immunoblot and reverse co-IP/immunoblot, activated WT mouse CD3+ T cell extracts
[17] = target: glyceraldehyde-3-phosphate dehydrogenase (GAPDH) (mouse) (UniProt P16858); assay: as above
[18] = target: glyceraldehyde-3-phosphate dehydrogenase (GAPDH) (mouse) (UniProt P16858); assay: reverse co-IP with antibody to the enzyme, anti-Sirt2 immunoblot, activated WT mouse CD3+ T cell extracts
[19] = target: glyceraldehyde-3-phosphate dehydrogenase (GAPDH) (mouse) (UniProt P16858); assay: reverse co-IP with antibody to the enzyme, anti-Sirt2 immunoblot, activated WT mouse CD3+ T cell extracts (FIG. 3C)

Measured: binding

B1: Sirt2 (enzyme, mouse, UniProt Q8VDQ8 2-389, looked up)
chain: AEPDPSDPLETQAGKVQEAQDSDSDTEGGATGGEAEMDFLRNLFTQTLGLGSQKERLLDELTLEGVTRYMQSERCRKVICLVGAGISTSAGIPDFRSPSTGLYANLEKYHLPYPEAIFEISYFKKHPEPFFALAKELYPGQFKPTICHYFIRLLKEKGLLLRCYTQNIDTLERVAGLEPQDLVEAHGTFYTSHCVNTSCRKEYTMGWMKEKIFSEATPRCEQCQSVVKPDIVFFGENLPSRFFSCMQSDFSKVDLLIIMGTSLQVQPFASLISKAPLATPRLLINKEKTGQTDPFLGMMMGLGGGMDFDSKKAYRDVAWLGDCDQGCLALADLLGWKKELEDLVRREHANIDAQSGSQAPNPSTTISPGKSPPPAKEAARTKEKEEQQ
binds: [1] | [2] | enolase 1 (ENO1) (mouse) [3] | [4] | enolase 1 (ENO1) (mouse) [5] | [6] | [7] | [8] | enolase 1 (ENO1) (mouse) [9] | [10] | [11] | enolase 1 (ENO1) (mouse) [12] | [13] | enolase 1 (ENO1) (mouse) [14] | [15] | enolase 1 (ENO1) (mouse) [16] | [17] | [18] | [19]

From patent US20220017863A1, “SIRT2-ABLATED CHIMERIC T CELLS” (H. Lee Moffitt Cancer Center and Research Institute, Inc., priority 2019, published 2022)
